The text below walks through data of publication PMC12594597.

Protein sequences, listed by entry. Tags and fused reporters are not part of them.
UniProt Q14258: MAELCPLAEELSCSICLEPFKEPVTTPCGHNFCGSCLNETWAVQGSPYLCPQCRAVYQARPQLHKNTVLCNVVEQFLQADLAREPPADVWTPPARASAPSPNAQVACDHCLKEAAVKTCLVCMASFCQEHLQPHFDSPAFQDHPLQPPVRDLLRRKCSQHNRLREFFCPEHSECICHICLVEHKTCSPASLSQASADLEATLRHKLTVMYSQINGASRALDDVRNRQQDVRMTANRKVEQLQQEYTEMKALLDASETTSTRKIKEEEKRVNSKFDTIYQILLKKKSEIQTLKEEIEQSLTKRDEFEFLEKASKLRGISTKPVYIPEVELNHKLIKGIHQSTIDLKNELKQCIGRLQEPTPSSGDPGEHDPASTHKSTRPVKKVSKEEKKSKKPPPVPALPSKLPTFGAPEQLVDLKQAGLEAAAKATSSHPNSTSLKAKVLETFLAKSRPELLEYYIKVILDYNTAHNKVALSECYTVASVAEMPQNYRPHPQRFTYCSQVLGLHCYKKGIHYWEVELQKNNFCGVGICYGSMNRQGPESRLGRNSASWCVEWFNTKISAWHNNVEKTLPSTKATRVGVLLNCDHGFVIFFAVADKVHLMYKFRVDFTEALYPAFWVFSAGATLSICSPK

The target of the experiment is T1, Carnitine Palmitoyltransferase 1A (CPT1A) (human (endogenous in THP-1)) (UniProt P50416).
T1 sequence: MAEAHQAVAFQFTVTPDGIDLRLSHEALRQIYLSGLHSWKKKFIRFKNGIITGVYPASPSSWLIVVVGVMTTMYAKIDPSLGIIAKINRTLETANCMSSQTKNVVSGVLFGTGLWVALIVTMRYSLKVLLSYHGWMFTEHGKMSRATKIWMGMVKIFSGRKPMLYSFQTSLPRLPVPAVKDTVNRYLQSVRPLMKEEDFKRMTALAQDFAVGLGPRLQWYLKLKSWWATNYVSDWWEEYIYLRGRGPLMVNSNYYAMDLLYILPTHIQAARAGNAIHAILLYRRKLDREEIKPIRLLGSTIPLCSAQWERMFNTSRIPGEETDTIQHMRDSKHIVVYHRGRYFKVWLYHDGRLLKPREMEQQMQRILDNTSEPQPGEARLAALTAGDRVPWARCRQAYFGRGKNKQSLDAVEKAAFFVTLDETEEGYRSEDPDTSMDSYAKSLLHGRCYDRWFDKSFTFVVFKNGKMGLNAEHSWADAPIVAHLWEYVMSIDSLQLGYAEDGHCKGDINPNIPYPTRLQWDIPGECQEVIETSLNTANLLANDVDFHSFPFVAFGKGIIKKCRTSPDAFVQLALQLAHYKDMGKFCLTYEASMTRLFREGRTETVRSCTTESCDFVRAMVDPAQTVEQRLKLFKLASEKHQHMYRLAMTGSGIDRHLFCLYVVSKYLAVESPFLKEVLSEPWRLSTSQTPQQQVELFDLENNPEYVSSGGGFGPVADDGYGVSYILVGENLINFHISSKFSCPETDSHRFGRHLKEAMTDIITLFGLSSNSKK
Nature of the experiment: affinity purification with mass spectrometry; LC-MS/MS of the CPT1A immunoprecipitate; cells not given.

No constants are given. Whether binding was seen depends on the method and setting. Binding seen in cells or lysates may run through a third protein. These calls come from enrichment with a bait or labelling near it, and not all partners need be listed.

In the case of “TRIM25 (tripartite motif-containing 25) (from UniProt Q14258 1-630)”, the binding entry is on record as “binds”.
